Data reported in US7208572B2, “Leptin-related peptides” (Albany Medical College, priority 1998, dated 2007).
“Also recorded” adds a separate entry of the source. Part of at least one peptide drawing is inferred or uncertain, most often the ends. Ends that are not written are not given here.

Experiments:
[1] = Thermogenesis (cold stress 4° C.) in female C57BLKS/J-m db/db mice; assay type: in vivo, mouse; conditions: 4 or 7 days treatment
[2] = Blood glucose in female C57BLKS/J-m db/db mice; assay type: in vivo, mouse
[3] = Truncated and D-amino acid-substituted analogs: body weight, food and water intake in female C57BL/6J ob/ob mice, 7 days; assay type: in vivo, mouse; conditions: 7 days
Protocol: A. Housing: 6–8-week old homozygous female obese (ob/ob) and wild type (+1+) mice (C57BL/6J, Jackson Laboratory, Bar Harbor, Maine) were maintained in a temperature-controlled room (24° C.) in the Albany Medical College Animal Resources Facility under alternating 12-h light and dark periods (lights on 0700–1900 h). The animals were housed three per cage, and allowed food and water ad libitum for six days following their arrival.
Food and water remaining after 24 h was measured to the nearest 0.1 g and 0.1 ml, respectively, and the average amount consumed per mouse was calculated (mean±SEM, n=6). The mice were weighed once daily between 0900 and 1100 h on an Acculab V-333 electronic balance (Cole-Parmer, Vernon Hills, Ill.)
C. […] Control mice received 0.2 ml PBS (ip) only.
Female C7BL/6J ob/ob mice were given a single ip injection of vehicle (PBS, pH 7.2), LEP-(116–130) or truncated peptide (1 mg/200 ul PBS) for seven consecutive days. Daily changes in body weight compared to pretreatment weights of vehicle-injected control and peptide-treated mice were analyzed.

OB-Ra = target: T1, OB-Ra (Mus musculus, UniProt P48356); experiment: Inhibition of AP-OB fusion protein binding by COS-7 cells transfected with OB receptor; conditions: 1 nM human AP-OB, peptide up to 300 μM
T1 construct: expressed in transfected cells; host or cells: COS-7
T1 sequence (P48356 22-894 isoform P48356-2 limits assumed): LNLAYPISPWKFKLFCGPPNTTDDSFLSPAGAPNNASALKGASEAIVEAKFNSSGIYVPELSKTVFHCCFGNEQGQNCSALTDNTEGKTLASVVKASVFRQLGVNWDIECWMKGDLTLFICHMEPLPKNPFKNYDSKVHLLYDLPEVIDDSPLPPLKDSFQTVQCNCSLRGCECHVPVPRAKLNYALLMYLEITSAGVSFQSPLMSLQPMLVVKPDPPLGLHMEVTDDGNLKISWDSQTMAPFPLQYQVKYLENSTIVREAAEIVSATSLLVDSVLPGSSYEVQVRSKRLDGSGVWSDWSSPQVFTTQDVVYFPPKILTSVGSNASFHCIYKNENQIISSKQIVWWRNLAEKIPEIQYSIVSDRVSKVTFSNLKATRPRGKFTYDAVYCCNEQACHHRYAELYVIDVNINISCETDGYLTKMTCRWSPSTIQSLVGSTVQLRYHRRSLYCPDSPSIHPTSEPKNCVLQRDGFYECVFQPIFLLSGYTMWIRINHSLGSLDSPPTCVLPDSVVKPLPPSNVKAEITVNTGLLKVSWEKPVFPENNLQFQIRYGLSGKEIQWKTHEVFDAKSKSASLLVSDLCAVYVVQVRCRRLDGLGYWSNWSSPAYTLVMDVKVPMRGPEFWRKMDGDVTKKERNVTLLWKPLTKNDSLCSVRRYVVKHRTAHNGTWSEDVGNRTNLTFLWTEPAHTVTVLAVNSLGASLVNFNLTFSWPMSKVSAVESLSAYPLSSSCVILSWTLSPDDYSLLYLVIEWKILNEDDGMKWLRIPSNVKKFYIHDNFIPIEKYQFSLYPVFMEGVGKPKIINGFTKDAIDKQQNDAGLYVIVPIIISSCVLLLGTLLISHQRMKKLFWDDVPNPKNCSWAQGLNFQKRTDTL
Source text: Initial experiments to determine the mechanism of action of LEP(116–130) utilized two highly sensitive in vitro bioassays routinely used to assess leptin binding and receptor activation (see e.g., White, et al., 1997. Proc. Natl. Acad. Sci. U.S.A. 94: 10657–10662). An alkaline phosphatase (“AP”)-leptin (“OB”) fusion protein (“AP-OB”) was used to measure inhibition of leptin binding in the absence or presence of recombinant mouse leptin (positive control) or peptide, by COS-7 cells transfected with the long (signaling) form of the mouse OB receptor (“OB-RL”). Signal transduction assays were done in GT1–7 cells cotransfected with AP reporter and OB-RL constructs. Secreted alkaline phosphatase (“SEAP”) activity in response to stimulation with mouse leptin or peptide was measured by chemiluminescence.
Two days after transfection, COS-7 cells were incubated with 1 nm human AP-OB fusion protein and bound AP activity was determined by chemiluminescence using the Great EscApe alkaline phosphatase detection kit as described by the manufacturer (CLON-TECH).
COS-7 cells were transfected with expression vector for OB-Ra. Two days after transfection, the cells were incubated with 1 nM human AB-OB fusion protein in the absence or presence of 30 nM mouse leptin, 300 μM LEP(116–130) or LEP(146–160). Bound AP activity was determined as has been described. […]

SCSLPQTSGLQKPES-NH2 [LEP(116–130), Ser-Cys-Ser-Leu-Pro-Gln-Thr-Ser-Gly-Leu-Gln-Lys-Pro-Glu-Ser]
Core temperature under cold stress [1]: marked decrease in core temperature | Time for blood glucose to return to vehicle level after withdrawal [2]: ≤ 24 h | Reduction of blood glucose ([2]; after 2 days, 1 mg/day ip): approximately 100 mg/dl | Loss of initial body weight ([3]; 1 mg/day ip): 12.2% | Decrease(%) of cumulative food intake ([3]; 1 mg/day ip, vs vehicle): 28.2% | Food intake less than vehicle-injected control mice [3]: 28.3% | Inhibition of AP-OB fusion protein binding (OB-Ra): unable to compete the binding; also recorded: neither LEP(116–130) nor LEP(146–160), at 300 μM, were able to inhibit AP-OB binding; also recorded: unable to inhibit binding of AP-OB fusion protein
